PubChem BioAssay AID504791 – Drosophila RNAi Screening Center, 2011
The screen tested about 23,000 reagents; below is an unselected part of those that have a named target and a result. Of all reagents, 199 (0.86%) got an active call. 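Plate-scaled ratios behind the calls are not deposited; printed light signals are raw; many rows marked increased or decreased are still called inactive.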 No sequences are given here. The record does not give: the direction of the score.

Screen: 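Factors in Argonaute-based small RNA production and activity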 (primary screen)
Cells: Drosophila S2-derived reporter cells
Reagents: long dsRNA against Drosophila genes, about 150-250 ng dsRNA per well (siRNA assay); about 80-120 ng (miRNA assay)
Timing: about 5 days (siRNA assay); about 4 days (miRNA assay)
Challenge: copper sulfate induction of reporters: 25 µM (siRNA assay); 200 mM stated (miRNA assay), 1-2 days before reading
Measurement: 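Per-well ratio of Renilla over firefly light, expressed relative to that plate's average ratio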
Units: stable assay Renilla, run 1 in luminescence; stable assay firefly, run 1 in luminescence
Call rule: 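First-pass picks had plate-scaled ratios over 1.5 for the siRNA assay, over 1.6 for the miRNA assay, or under 0.6; two distinct dsRNAs had to score alike on retest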

CG5543 [SID104184303] — stable assay Renilla, run 1 = 8859; stable assay firefly, run 1 = 1.46e6; Outcome = inactive
mthl1 (methuselah-like 1) [SID104199697] — stable assay Renilla, run 1 = 5024; stable assay firefly, run 1 = 4.31e5; Outcome = inactive
CG34022 (retired record) [SID104187741] — stable assay Renilla, run 1 = 6559; stable assay firefly, run 1 = 4.24e5; Outcome = inactive
gwl (greatwall) [SID104196097] — stable assay Renilla, run 1 = 9286; stable assay firefly, run 1 = 4.78e5; Outcome = inactive
CG34324 [SID104199294] — stable assay Renilla, run 1 = 4812; stable assay firefly, run 1 = 3.83e5; Outcome = inactive
CG34324 [SID104202598] — stable assay Renilla, run 1 = 5064; stable assay firefly, run 1 = 3.60e5; Outcome = inactive
CG18233 [SID104190100] — stable assay Renilla, run 1 = 6770; stable assay firefly, run 1 = 3.67e5; Outcome = inactive

A portion taken from the entries so far, as a working copy:
CG34022 (retired record) [SID104187741] — stable assay Renilla, run 1 = 6559; stable assay firefly, run 1 = 4.24e5; Outcome = inactive
gwl (greatwall) [SID104196097] — stable assay Renilla, run 1 = 9286; stable assay firefly, run 1 = 4.78e5; Outcome = inactive

Next entries:
Pde1c (Phosphodiesterase 1c) [SID104182213] — stable assay Renilla, run 1 = 7352; stable assay firefly, run 1 = 4.15e5; Outcome = inactive
Pde1c (Phosphodiesterase 1c) [SID104182214] — stable assay Renilla, run 1 = 7275; stable assay firefly, run 1 = 4.39e5; Outcome = inactive
Pde1c (Phosphodiesterase 1c) [SID104182215] — stable assay Renilla, run 1 = 7619; stable assay firefly, run 1 = 3.60e5; Outcome = inactive
Pde1c (Phosphodiesterase 1c) [SID104182216] — stable assay Renilla, run 1 = 7470; stable assay firefly, run 1 = 3.88e5; Outcome = inactive
Pde1c (Phosphodiesterase 1c) [SID104182217] — stable assay Renilla, run 1 = 6960; stable assay firefly, run 1 = 3.91e5; Outcome = inactive
Pde1c (Phosphodiesterase 1c) [SID104182218] — stable assay Renilla, run 1 = 6130; stable assay firefly, run 1 = 4.82e5; Outcome = inactive
CG33172 [SID104201452] — stable assay Renilla, run 1 = 7622; stable assay firefly, run 1 = 4.33e5; Outcome = inactive
Ir52b (Ionotropic receptor 52b) [SID104186055] — stable assay Renilla, run 1 = 6354; stable assay firefly, run 1 = 3.79e5; Outcome = inactive
Eip74EF (Ecdysone-induced protein 74EF) [SID104190405] — stable assay Renilla, run 1 = 6143; stable assay firefly, run 1 = 2.25e5; Outcome = inactive
Eip74EF (Ecdysone-induced protein 74EF) [SID104190952] — stable assay Renilla, run 1 = 5959; stable assay firefly, run 1 = 2.47e5; Outcome = inactive
CG8654 [SID104187023] — stable assay Renilla, run 1 = 8167; stable assay firefly, run 1 = 2.81e5; Outcome = inactive
CG14506 [SID104194650] — stable assay Renilla, run 1 = 6591; stable assay firefly, run 1 = 3.99e5; Outcome = inactive
